No constants are given. Whether binding was seen depends on the method and setting. In cells and extracts the contact can be indirect. Some binding calls cover weakened binding; strength is not graded here.
What was measured:
[1] = biological target: IRS-1, endogenous in MCF-7 cells (human (endogenous in MCF-7)) (UniProt P35568); test: co-IP; unpublished observation; endogenous proteins from MCF-7 cells; no significant change by prolonged insulin stimulation or PMA
[2] = biological target: IRS-1, endogenous in MCF-7 cells (human (endogenous in MCF-7)) (UniProt P35568); test: co-IP; endogenous proteins, MCF-7 lysates; IRS-1 immunoprecipitated, blotted for HDAC2; cells treated with IGF-1 (10 ng/ml), insulin (100 nM), PMA (10 ng/ml), DesCoA (10 nM), TSA (150 ng/ml) in combinations; washes with 500 mM NaCl
[3] = biological target: IRS-1, endogenous in mouse liver (mouse (endogenous in liver)) (UniProt P35569); test: co-IP; liver lysates of PTP1B knockout mice; IRS-1 immunoprecipitated, blotted for HDAC2
[4] = biological target: IRS-1, endogenous in mouse liver (mouse (endogenous in liver)) (UniProt P35569); test: co-IP; liver lysates of ob/ob mice and of balb/cJJ mice; IRS-1 immunoprecipitated, blotted for HDAC2
[5] = biological target: IRS-1, endogenous in mouse liver (mouse (endogenous in liver)) (UniProt P35569); test: condition: only liver of C57/bl6 genotype control mice; co-IP; liver lysates of C57/bl6 genotype control mice; IRS-1 immunoprecipitated, blotted for HDAC2

Amino acid sequences for entries named in this document (tags omitted).
UniProt P35568: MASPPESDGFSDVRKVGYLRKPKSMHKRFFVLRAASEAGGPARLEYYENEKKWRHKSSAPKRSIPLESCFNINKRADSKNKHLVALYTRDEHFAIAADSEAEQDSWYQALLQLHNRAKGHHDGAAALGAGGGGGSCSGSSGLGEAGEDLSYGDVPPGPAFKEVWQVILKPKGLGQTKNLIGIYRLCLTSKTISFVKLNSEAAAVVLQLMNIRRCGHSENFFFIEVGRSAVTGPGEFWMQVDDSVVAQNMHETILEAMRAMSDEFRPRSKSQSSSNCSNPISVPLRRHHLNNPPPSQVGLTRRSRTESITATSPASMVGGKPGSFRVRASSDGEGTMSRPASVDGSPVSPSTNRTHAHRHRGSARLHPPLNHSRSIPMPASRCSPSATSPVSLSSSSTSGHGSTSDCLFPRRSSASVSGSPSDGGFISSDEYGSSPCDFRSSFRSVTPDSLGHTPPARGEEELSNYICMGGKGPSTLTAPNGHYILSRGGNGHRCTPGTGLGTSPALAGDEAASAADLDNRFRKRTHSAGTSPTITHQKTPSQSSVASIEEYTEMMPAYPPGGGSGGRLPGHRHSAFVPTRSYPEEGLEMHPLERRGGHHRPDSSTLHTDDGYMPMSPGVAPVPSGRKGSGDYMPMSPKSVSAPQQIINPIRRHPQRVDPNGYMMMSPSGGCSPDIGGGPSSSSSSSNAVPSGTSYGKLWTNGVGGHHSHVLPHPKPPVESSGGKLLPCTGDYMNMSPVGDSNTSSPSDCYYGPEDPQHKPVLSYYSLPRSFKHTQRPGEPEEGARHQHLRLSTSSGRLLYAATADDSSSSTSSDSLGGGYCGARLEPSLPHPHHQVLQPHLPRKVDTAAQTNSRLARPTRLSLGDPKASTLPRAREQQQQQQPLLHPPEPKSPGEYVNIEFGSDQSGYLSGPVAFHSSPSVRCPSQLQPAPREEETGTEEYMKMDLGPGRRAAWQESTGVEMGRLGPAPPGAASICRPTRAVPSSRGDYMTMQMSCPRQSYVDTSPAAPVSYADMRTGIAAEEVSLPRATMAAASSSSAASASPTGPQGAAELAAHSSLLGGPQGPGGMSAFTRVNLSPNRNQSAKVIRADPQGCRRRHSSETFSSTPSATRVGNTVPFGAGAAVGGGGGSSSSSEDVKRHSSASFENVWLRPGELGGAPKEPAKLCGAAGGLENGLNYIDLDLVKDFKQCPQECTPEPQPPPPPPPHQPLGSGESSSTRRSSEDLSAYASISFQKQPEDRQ
UniProt P35569: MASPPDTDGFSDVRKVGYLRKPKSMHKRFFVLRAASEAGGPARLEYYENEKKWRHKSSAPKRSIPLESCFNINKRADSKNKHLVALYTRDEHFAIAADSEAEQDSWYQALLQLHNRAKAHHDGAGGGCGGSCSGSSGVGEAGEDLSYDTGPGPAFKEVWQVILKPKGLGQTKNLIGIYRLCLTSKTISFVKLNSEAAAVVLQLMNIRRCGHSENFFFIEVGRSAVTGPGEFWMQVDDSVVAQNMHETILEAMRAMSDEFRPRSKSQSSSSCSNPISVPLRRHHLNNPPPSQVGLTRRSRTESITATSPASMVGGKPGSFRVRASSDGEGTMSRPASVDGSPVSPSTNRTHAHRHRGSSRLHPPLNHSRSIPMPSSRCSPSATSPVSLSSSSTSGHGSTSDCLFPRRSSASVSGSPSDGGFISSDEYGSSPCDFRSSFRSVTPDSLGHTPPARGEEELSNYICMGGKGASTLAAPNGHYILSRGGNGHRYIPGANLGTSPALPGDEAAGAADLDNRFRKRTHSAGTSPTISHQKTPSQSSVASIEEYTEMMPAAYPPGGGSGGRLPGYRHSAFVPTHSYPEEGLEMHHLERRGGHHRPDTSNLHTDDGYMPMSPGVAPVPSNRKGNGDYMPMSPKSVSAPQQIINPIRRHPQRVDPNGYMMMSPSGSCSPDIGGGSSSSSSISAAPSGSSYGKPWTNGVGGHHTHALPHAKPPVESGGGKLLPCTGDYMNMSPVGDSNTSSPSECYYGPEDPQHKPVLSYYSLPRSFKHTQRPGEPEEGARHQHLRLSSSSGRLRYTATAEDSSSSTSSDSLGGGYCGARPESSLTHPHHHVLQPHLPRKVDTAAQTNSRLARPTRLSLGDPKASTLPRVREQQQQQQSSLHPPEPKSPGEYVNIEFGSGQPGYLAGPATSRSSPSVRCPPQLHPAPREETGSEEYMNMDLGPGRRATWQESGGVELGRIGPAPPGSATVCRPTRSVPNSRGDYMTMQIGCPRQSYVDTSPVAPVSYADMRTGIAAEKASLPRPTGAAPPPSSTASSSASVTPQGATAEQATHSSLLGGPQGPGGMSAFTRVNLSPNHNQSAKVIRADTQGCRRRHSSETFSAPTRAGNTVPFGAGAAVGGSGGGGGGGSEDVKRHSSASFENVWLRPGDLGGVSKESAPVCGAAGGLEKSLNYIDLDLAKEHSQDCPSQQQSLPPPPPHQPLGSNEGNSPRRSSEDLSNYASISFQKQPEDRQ
UniProt Q13547: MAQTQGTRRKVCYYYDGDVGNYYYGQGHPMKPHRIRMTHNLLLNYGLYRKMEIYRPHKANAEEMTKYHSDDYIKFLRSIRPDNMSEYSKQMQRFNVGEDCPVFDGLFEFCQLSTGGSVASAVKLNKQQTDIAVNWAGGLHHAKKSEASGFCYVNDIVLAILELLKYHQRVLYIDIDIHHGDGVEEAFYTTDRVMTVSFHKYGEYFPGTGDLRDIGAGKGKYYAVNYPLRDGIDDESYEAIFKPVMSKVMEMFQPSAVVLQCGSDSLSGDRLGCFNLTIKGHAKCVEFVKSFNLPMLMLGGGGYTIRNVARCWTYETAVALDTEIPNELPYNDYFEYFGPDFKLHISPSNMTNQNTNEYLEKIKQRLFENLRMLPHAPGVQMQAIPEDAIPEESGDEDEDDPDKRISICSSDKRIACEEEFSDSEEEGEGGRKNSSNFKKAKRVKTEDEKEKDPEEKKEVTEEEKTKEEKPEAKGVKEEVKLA
UniProt Q92769: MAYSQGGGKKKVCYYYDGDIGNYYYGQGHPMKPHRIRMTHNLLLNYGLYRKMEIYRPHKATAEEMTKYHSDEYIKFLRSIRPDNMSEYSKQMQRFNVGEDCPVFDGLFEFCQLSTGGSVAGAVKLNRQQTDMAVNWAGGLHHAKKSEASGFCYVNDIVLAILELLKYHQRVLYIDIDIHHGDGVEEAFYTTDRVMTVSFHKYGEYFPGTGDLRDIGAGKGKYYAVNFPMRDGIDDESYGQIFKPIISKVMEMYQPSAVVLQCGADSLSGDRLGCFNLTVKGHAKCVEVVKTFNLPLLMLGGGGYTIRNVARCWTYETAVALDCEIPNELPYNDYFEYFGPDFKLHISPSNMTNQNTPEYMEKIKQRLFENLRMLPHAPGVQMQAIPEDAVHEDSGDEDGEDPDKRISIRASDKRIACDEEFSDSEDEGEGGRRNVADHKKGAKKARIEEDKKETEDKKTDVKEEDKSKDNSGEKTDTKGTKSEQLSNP
UniProt P70288: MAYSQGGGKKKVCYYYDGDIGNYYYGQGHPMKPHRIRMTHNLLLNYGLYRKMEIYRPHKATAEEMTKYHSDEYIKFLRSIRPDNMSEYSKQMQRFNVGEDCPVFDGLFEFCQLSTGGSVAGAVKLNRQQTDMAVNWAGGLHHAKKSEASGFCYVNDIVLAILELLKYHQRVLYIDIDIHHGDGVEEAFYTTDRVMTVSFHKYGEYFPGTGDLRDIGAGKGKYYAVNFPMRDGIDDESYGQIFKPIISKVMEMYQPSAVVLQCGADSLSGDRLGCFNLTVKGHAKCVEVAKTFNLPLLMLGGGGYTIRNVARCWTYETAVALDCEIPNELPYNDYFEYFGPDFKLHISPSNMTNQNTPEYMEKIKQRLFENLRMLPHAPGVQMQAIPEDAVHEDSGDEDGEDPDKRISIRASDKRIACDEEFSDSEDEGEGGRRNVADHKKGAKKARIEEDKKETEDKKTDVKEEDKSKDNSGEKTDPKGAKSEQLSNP

Substance: HDAC1, endogenous in MCF-7 cells (from UniProt Q13547 1-482)
- binding [1]: binds

Substance: HDAC2, endogenous in MCF-7 cells (from UniProt Q92769 1-488)
- binding [2]: binds

Substance: HDAC2, endogenous in mouse liver (from UniProt P70288 1-488)
- binding [3]: no binding (condition: liver of PTP1B knockout mice)
- binding [4]: binds
- binding [5]: no binding

Source: PMC529456
